Data on 59 molecules can be found in PubChem BioAssay AID2685 (National Center for Advancing Translational Sciences (NCATS), 2010).

What is called AC50 is the concentration at which the activity in the assay is half-maximal. Read a high AC50 as weaker potency.

The other results are listed elsewhere or left out. Shown are side measurements of this screen, not its main read-out; they come without a call. The list favours compounds with an active or inconclusive main result. The note in brackets gives the kind of curve behind each potency; many fits are weak.

This assay in a line: qHTS Assay for Lipid Storage Modulators in Drosophila S3 Cells.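 As to cell number change: cells counted by Cell Tracker Red CMTPX staining in the red channel.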 The note with it: BODIPY lipid droplet fluorescence, 18-24 h; for cell number change: measured here: cell count max response, cells fed with added oleic acid. The gist of the method:
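Laser-scanning cytometry quantifies lipid droplet accumulation (500–530 nm total intensity; droplet/cell object ratio) in oleic acid-fed (400 uM added) Drosophila S3 cells treated with a concentration series. 20 uM Triacsin C defined 100% inhibition.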
In general terms: In qHTS, concentration-response curves come from the screen itself.

Where [1] appears, read: measured here: cell number channel AC50, cells fed with added oleic acid.
[2] abbreviates: measured here: lipid fluorescence (Fed channel) AC50, cells fed with added oleic acid.

Regarding `COc1ccc(C2Nc3ccccc3C(=O)N2Cc2ccco2)cc1COc1ccc([N+](=O)[O-])cc1` (stereo not given), the cell number change was 3.35%. In addition, the AC50 under setting [1] is 0.731 µM [falling, partial curve, poor fit].

`CCOc1ccc2nc(NC(=O)C3CCN(S(=O)(=O)c4cnc[nH]4)CC3)sc2c1`: the cell number change is 10.4%. The AC50 under setting [2] was 0.103 µM [rising, full curve, poor fit].

With `O=C(CSc1nc2ccccc2c(=O)[nH]1)Nc1ccc(C(=O)O)cc1`, the cell number change was -59.7%. In addition, the AC50 under setting [1] was 1.64 µM [falling, partial curve]. The AC50 under setting [2] is 1.46 µM [falling, partial curve].

On to `CCOC(=O)CSc1nc2ccccc2n1CC(=O)N1CCN(c2ccccc2)CC1`, for which the cell number change was -13.5%. Also, the AC50 under setting [2] is 0.651 µM [falling, partial curve, poor fit].

Consider `Cc1ccc(C(=O)N2N=C(CC(C)C)CC2(O)C(F)(F)F)o1` (stereo not given), for which the cell number change stood at 38.9%.

`CCOC(=O)N1CCN(S(=O)(=O)N2CCCC(C(=O)NCc3ccc(OC)cc3OC)C2)CC1` (stereo not given): the cell number change was -13.2%.

`Cc1nn(CC(O)Cn2cnc3c2c(=O)n(C)c(=O)n3C)c(C)c1Br` (stereo not given): the cell number change is -6.68%. Besides, the AC50 under setting [2] is 1.03 µM [falling, full curve, poor fit].

For the molecule `CC(C)(C)C1C/C(=C/c2ccco2)C(=O)/C(=C/c2ccco2)C1` (stereo not given), the AC50 under setting [2] was 11.6 µM [falling, partial curve].

Turning to `COc1ccc(NC(=O)CCCn2c(=O)c3sccc3n(Cc3ccccc3C)c2=O)cc1`, the cell number change is 24.5%.

For the molecule `CCNC(=S)N1CCC(n2cnc3ccccc32)CC1`, the cell number change was -29.9%.

As to `CN(C)S(=O)(=O)c1cc(NC(=O)CN2CCOCC2)ccc1Cl`, the cell number change is 1.94%. Moreover, the AC50 under setting [1] is 2.06 µM [falling, partial curve].

For the molecule `O=C(CN1CCN(S(=O)(=O)c2ccc(Cl)c(Cl)c2)CC1)N1CCCC1`, the cell number change is -14.9%. Under setting [1], the AC50 was 0.461 µM [falling, full curve, poor fit]. Also, the AC50 under setting [2] was 0.13 µM [falling, full curve, poor fit].

For the molecule `Oc1ccc(Cl)cc1CNCc1ccc(F)c(F)c1`, the cell number change was 2.05%. Besides, the concentration at half-maximal activity (AC50) under setting [2] was 0.00517 µM [rising, full curve, poor fit].

On to `O=C(N/N=C/c1ccco1)c1cc(-c2ccc3ccccc3c2)n[nH]1`, for which the cell number change is -92.7%. The AC50 under setting [1] was 18.4 µM [falling, single point]. Also, the concentration at half-maximal activity (AC50) under setting [2] was 6.51 µM [rising, single point].

Consider `COc1cc(CCC(=O)OCC(=O)Nc2ccc3c(c2)OCO3)cc(OC)c1OC`, for which, under setting [2], the AC50 was 29.1 µM [rising, partial curve, poor fit].

With `Clc1ccsc1-c1ccc2ccccc2n1`, the cell number change was -27.7%.

Take `Cc1ccc(N2CC(C(=O)OCC(=O)C(C)(C)C)CC2=O)cc1C` (stereo not given): the cell number change is -0.597%. Also, the concentration at half-maximal activity (AC50) under setting [2] was 3.26 µM [falling, full curve].

On to `Cc1[nH]c2ccccc2c1C(c1ccncc1)N1CCN(c2ccccc2F)CC1` (stereo not given), for which the cell number change amounted to 66.7%. Also, the AC50 under setting [1] is 29.1 µM [rising, single point].

For `CC(=O)c1ccc(-c2ccc(C(=O)N3CCN(c4ccc(F)cc4)CC3)o2)cc1`, the AC50 under setting [1] is 3.66 µM [rising, partial curve] and the concentration at half-maximal activity (AC50) under setting [2] is 2.31 µM [rising, full curve].

Take `O=C(Nc1ccc2nc(N3CCOCC3)sc2c1)c1ccccc1`: the cell number change is -3.25%. Moreover, the concentration at half-maximal activity (AC50) under setting [1] is 1.03 µM [falling, full curve, poor fit]. Also, under setting [2], the AC50 is 0.92 µM [falling, full curve].

Consider `CCC(C)(C)C1CCc2[nH]nc(C(=O)NC(C)C)c2C1` (stereo not given), for which the cell number change was -44.9%. For the same molecule, under setting [1], the AC50 is 18.4 µM [falling, single point].

Consider `COC(=O)CNC(=O)CCC(=O)N1CCN(C(c2ccccc2)c2ccccc2)CC1`, for which the cell number change was -18.7%. Also, the AC50 under setting [2] was 0.58 µM [rising, single point].

For the molecule `CCCCOc1ccc(C(=O)NCC(=O)NCC2CCCO2)cc1` (stereo not given), the cell number change is 21.8%. Further, the AC50 under setting [2] was 0.517 µM [rising, partial curve].

Take `O=C(Nc1ccc(N2CCOCC2)cc1)C1CCCN(S(=O)(=O)c2ccccc2)C1` (stereo not given): the cell number change was -13.5%. The AC50 under setting [1] was 0.651 µM [falling, full curve, poor fit].

Regarding `Cc1nc(NC(C)C)c2oc3ccccc3c2n1`, under setting [2], the concentration at half-maximal activity (AC50) was 18.4 µM [falling, partial curve, poor fit].

As for `Cc1c(NC(=O)C(C)OC(=O)/C=C/c2ccco2)c(=O)n(-c2ccccc2)n1C` (stereo not given), the cell number change was -51.4%. In addition, under setting [1], the concentration at half-maximal activity (AC50) is 9.2 µM [falling, full curve, poor fit]. For the same molecule, under setting [2], the AC50 was 0.0517 µM [falling, full curve].

`C[C@H](NC(=O)c1[nH]cnc1C(=O)Nc1ccccc1)c1ccccc1`: the cell number change is -59.8%. Moreover, the concentration at half-maximal activity (AC50) under setting [1] was 9.2 µM [falling, single point]. Under setting [2], the AC50 is 10.3 µM [falling, single point].

As to `CC12CCC(=O)N1C(C(=O)Nc1ccc(Cl)c(S(=O)(=O)N3CCCCC3)c1)CS2` (stereo not given), the cell number change was 22.9%. Under setting [2], the AC50 is 20.6 µM [rising, single point].

Turning to `O=C(NC(=S)N1CCN(C2CCCCC2)CC1)c1ccccc1`, the cell number change is 52.5%. In addition, under setting [1], the AC50 was 29.1 µM [rising, single point].

With `O=C(N/N=C/c1ccc(O)c(O)c1)c1cccc(S(=O)(=O)N2CCCC2)c1`, the cell number change is 129%. Moreover, the AC50 under setting [1] is 18.4 µM [rising, single point]. Also, the concentration at half-maximal activity (AC50) under setting [2] is 0.517 µM [rising, full curve, poor fit].

For `Cc1ccc2nc(-c3ccc(Br)cc3)cn2c1`, the cell number change was -6.08%.

Take `COc1cc(/C=C2\SC(N)=NC2=O)ccc1OCC(=O)Nc1ccccc1C`: the cell number change was -24.1%. Also, under setting [2], the AC50 was 5.17 µM [rising, single point].

`CCOC(=O)c1ccc(-c2ccc(/C=C(\C#N)C(=O)NCc3cccs3)o2)cc1`: the cell number change stood at 6.48%. Besides, the AC50 under setting [2] is 0.146 µM [falling, single point].

On to `CCCCCN(C(=O)CCC(=O)OCc1ccc(C(C)C)cc1)c1c(N)n(CCCC)c(=O)[nH]c1=O`, for which the cell number change turned out to be 150%. The AC50 under setting [1] is 29.1 µM [rising, single point].

On to `COc1ccccc1NCC(=O)c1ccc(C)c(C)c1`, for which the cell number change stood at 10.6%.

Turning to `Cc1cc(F)ccc1S(=O)(=O)N1CCCCC1CCNC(=O)C(=O)NCc1ccccn1` (stereo not given), the cell number change was found to be 1.98%. The concentration at half-maximal activity (AC50) under setting [1] is 3.26 µM [falling, single point]. For the same molecule, the AC50 under setting [2] is 14.6 µM [falling, partial curve].

On to `CC(C)OP(=O)(c1ccc(N(C)C)cc1)C(O)c1ccc(Br)cc1` (stereo not given), for which the cell number change was determined as 16.8%. Under setting [2], the AC50 was 18.4 µM [rising, partial curve].

With `Cc1cc(N2C(=O)CCC2=O)ccc1NC(=O)c1cccs1`, under setting [1], the half-maximal activity concentration (AC50) is 0.366 µM [rising, single point].

With `O=C(c1cc(-c2ccc(F)cc2)nc2ccccc12)N1CCN(C2CCS(=O)(=O)C2)CC1` (stereo not given), the cell number change was 0.648%.

Regarding `COc1c(C(=O)Nc2nnc(C3CC3)s2)csc1Cl`, the concentration at half-maximal activity (AC50) under setting [2] is 6.51 µM [rising, single point].

For the molecule `CC1CCCC(NC(=O)COC(=O)c2cc(S(=O)(=O)N3CCOCC3)ccc2F)C1C` (stereo not given), the cell number change was -9.4%. Further, the AC50 under setting [2] is 0.58 µM [falling, single point].

As for `CCc1cccc2c(C(=O)CN3C(=O)NC(C)(c4cccc5ccccc45)C3=O)c[nH]c12` (stereo not given), the cell number change was -33%. In addition, the AC50 under setting [1] was 11.6 µM [falling, partial curve]. The AC50 under setting [2] is 13 µM [falling, partial curve].

Turning to `COc1cc(C(=O)NNC(=S)NC(=O)c2ccc(F)cc2)cc(OC)c1OC`, the cell number change was found to be 7.74%. For the same molecule, the AC50 under setting [2] is 6.51 µM [rising, single point].

Take `O=C(CSc1nc2ccccc2c(=O)n1CCCO)N1CCc2ccccc21`: the cell number change was -29%. Besides, the AC50 under setting [2] was 16.4 µM [falling, single point].

For the molecule `CCOC(=O)c1[nH]c2ccc(OC)cc2c1NC(=O)CCN1CCN(Cc2ccccc2)CC1`, the cell number change was 38.8%. The half-maximal activity concentration (AC50) under setting [1] is 23.1 µM [rising, single point]. The AC50 under setting [2] was 7.31 µM [rising, single point].

For the molecule `Nc1nc(COc2ccc(Cl)cc2)cs1`, the concentration at half-maximal activity (AC50) under setting [2] was 0.58 µM [falling, single point].

On to `CCCNC(=O)COC(=O)c1[nH]c(C)c(C(=O)OCC)c1C`, for which the cell number change is 77.2%. Further, the AC50 under setting [2] is 1.64 µM [rising, full curve].

Consider `CCN(CC)S(=O)(=O)c1ccc(NC(=O)C(C)N(c2ccccc2)S(C)(=O)=O)cc1` (stereo not given), for which the cell number change was -16.1%. Besides, under setting [2], the AC50 is 29.1 µM [falling, single point].

Take `O=C(NCCc1ccccc1C(F)(F)F)C1CCC(=O)N(C2CC2)C1` (stereo not given): the cell number change is 37.1%. Further, under setting [1], the AC50 is 32.6 µM [rising, single point].

With `CN(CC(=O)Nc1ccccc1C(F)(F)F)C(=O)C1CC1`, the cell number change worked out at 14.7%. The AC50 under setting [2] was 0.13 µM [falling, full curve, poor fit].

For the molecule `CCOC(=O)C1=C(COc2ccccc2)NC(=O)NC1c1ccc(Cl)cc1` (stereo not given), the cell number change was -9.58%. Besides, the AC50 under setting [2] is 11.6 µM [falling, partial curve].

Turning to `Nc1cc(Cl)ccc1N1CCCCC1`, the cell number change was -8.59%. Under setting [2], the AC50 was 0.731 µM [falling, full curve, poor fit].

Turning to `COc1cccc(N2CCN(CC(=O)NC(C)c3ccccc3)CC2)c1` (stereo not given), the cell number change came to 0.824%. The half-maximal activity concentration (AC50) under setting [2] was 13 µM [rising, partial curve].

Turning to `Cc1n(CC(=O)c2ccc(F)cc2)c2ccccc2[n+]1C`, the cell number change was -26.5%. Under setting [2], the concentration at half-maximal activity (AC50) is 23.1 µM [falling, single point].

As for `CCN1C=C(C(=O)OC)C(c2cccc(OC)c2OC)C(C(=O)OC)=C1`, the cell number change is -58.4%. For the same molecule, the half-maximal activity concentration (AC50) under setting [1] was 29.1 µM [falling, single point]. For the same molecule, the half-maximal activity concentration (AC50) under setting [2] was 23.1 µM [falling, single point].

Take `CC(C)Nc1nc(SCC(N)=O)nc(N2CCOCC2)n1`: the cell number change was -76%. The AC50 under setting [1] is 13 µM [falling, partial curve, poor fit]. For the same molecule, the half-maximal activity concentration (AC50) under setting [2] is 7.31 µM [falling, single point].

For the molecule `COc1cccc2c(=O)n(CC(=O)NCCc3ccccc3)ccc12`, the cell number change worked out at 4.53%. For the same molecule, the half-maximal activity concentration (AC50) under setting [2] is 0.13 µM [rising, full curve, poor fit].

`Cc1cc(NS(=O)(=O)c2ccc(NC(=S)NC(=O)c3cccnc3)cc2)no1`: the cell number change is -18.2%.

For the molecule `COc1ccc(C(=O)NC2CC3CCCC(C2)N3Cc2ccccc2)c(OC)c1` (stereo not given), the cell number change was -0.525%. Moreover, under setting [2], the half-maximal activity concentration (AC50) was 6.51 µM [falling, single point].
